Measured values published in the supplement of paper PMC6411743.
± gives the standard deviation of the averaged measurements. Only a part is listed here, and it is no random draw.

Protein sequences, listed by entry. Tags and fused reporters are not part of them. Lines headed by an entry give the natural chain unless they say otherwise; changes in a name come on top.
UniProt P12755: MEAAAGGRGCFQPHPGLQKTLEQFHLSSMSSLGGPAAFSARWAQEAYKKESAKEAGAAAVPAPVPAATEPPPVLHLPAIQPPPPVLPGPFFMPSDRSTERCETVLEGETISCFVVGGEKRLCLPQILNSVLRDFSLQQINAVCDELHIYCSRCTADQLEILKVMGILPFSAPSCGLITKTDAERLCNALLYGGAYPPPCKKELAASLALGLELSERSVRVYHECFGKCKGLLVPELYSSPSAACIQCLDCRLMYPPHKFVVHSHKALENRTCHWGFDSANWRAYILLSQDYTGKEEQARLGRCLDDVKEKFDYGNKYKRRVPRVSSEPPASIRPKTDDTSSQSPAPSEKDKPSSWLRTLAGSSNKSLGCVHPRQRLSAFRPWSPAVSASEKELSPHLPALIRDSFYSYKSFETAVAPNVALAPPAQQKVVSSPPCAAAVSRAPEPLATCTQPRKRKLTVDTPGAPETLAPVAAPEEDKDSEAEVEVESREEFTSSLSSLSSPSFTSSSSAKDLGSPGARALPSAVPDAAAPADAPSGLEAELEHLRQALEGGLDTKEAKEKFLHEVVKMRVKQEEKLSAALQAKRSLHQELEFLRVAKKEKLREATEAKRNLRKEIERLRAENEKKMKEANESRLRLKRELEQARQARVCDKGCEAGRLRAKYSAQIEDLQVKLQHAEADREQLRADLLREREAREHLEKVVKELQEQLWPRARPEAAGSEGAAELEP
UniProt P00558: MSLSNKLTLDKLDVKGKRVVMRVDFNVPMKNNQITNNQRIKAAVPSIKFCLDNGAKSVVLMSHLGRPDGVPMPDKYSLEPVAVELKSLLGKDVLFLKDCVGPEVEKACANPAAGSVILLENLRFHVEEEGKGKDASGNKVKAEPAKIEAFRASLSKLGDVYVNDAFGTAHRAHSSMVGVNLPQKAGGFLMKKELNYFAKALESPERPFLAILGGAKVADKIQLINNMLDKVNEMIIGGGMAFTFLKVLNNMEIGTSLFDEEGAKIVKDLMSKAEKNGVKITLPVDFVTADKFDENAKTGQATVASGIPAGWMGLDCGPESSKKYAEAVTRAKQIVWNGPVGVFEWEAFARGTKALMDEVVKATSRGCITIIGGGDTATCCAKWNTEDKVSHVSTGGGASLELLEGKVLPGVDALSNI
UniProt P0CAP2, whole entry, looked up: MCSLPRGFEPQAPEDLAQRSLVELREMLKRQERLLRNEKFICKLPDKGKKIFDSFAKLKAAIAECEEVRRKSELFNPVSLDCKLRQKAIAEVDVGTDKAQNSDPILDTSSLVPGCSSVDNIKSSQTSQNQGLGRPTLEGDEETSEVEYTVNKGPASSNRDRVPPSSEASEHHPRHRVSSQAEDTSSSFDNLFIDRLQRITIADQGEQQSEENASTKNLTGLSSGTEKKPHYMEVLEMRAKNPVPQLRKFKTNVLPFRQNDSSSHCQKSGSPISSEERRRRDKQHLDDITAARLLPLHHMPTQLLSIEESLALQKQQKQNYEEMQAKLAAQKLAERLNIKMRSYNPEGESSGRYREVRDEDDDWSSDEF
UniProt P05387, whole entry: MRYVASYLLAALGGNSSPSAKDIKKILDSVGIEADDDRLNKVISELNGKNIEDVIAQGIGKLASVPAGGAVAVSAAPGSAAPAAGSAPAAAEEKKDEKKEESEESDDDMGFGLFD
UniProt O95777: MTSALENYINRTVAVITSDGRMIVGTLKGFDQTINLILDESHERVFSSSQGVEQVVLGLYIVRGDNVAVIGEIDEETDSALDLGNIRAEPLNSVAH
UniProt P05198, whole entry: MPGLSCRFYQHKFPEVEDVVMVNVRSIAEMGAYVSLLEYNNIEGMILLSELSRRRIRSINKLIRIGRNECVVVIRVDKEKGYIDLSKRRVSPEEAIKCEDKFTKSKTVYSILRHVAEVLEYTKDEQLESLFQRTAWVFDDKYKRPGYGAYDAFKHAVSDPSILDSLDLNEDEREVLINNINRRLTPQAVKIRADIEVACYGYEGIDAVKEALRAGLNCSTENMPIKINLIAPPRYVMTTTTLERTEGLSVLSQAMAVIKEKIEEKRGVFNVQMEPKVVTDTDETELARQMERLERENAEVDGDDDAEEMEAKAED
UniProt P08240: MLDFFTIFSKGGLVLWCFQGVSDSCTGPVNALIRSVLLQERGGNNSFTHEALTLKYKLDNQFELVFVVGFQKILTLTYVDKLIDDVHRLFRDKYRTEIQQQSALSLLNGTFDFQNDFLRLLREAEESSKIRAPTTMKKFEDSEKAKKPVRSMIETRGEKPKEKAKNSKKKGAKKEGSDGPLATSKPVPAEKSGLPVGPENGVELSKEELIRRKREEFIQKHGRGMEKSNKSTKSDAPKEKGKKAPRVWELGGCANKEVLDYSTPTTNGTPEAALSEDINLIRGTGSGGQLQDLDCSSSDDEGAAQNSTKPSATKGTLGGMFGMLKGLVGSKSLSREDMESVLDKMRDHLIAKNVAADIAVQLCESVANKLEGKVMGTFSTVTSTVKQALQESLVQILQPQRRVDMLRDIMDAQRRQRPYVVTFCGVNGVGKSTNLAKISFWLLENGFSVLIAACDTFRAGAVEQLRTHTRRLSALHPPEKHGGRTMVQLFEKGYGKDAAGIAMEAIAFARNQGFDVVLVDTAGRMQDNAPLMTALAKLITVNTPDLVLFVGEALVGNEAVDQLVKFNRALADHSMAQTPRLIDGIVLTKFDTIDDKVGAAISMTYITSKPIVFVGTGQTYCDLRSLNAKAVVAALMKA
UniProt P10515, whole entry: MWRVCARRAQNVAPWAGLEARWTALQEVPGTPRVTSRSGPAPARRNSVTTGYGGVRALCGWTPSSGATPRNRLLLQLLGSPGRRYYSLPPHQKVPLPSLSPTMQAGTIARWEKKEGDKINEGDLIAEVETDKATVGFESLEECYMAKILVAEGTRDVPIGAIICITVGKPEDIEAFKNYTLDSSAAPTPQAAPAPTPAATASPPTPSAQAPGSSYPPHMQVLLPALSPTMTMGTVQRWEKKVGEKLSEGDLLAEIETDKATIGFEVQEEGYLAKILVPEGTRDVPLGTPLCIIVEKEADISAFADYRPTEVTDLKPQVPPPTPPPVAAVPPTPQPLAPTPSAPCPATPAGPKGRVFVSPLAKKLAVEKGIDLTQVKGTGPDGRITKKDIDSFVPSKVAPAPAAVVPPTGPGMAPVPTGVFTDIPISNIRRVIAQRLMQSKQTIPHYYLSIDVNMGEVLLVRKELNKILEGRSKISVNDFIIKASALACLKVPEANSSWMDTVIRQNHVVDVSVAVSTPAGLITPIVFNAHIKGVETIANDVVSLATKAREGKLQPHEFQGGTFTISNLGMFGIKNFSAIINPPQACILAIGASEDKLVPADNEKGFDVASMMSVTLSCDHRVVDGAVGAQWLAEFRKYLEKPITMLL
UniProt P10398: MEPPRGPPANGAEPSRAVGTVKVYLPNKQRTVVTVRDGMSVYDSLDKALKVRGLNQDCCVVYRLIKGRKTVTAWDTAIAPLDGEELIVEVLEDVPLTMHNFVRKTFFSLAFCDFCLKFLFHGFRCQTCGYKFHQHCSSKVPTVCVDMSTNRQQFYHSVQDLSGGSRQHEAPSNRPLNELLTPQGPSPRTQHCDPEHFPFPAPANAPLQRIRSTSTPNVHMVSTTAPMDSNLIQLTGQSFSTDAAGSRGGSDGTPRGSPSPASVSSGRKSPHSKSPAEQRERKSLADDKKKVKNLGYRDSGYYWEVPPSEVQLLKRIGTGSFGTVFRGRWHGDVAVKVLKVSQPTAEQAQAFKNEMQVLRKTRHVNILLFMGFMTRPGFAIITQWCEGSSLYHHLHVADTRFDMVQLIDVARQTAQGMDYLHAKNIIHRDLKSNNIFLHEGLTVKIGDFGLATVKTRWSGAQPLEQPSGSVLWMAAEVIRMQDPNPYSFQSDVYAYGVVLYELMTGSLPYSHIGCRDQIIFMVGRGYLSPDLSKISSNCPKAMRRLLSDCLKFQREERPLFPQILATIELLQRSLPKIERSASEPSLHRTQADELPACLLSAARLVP
UniProt P14317: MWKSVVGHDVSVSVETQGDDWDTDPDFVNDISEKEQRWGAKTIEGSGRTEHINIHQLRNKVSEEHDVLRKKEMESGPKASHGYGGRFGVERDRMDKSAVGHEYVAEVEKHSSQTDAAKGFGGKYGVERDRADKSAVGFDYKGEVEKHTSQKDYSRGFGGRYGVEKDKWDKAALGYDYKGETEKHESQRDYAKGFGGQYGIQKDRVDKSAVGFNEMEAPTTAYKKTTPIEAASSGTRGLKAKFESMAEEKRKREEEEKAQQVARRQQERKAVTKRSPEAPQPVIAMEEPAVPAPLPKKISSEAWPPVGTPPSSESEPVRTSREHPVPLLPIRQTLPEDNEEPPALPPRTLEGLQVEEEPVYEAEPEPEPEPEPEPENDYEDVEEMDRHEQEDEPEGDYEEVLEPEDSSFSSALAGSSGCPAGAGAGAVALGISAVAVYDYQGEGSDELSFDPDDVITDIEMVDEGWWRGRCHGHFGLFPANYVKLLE
UniProt P06733, whole entry: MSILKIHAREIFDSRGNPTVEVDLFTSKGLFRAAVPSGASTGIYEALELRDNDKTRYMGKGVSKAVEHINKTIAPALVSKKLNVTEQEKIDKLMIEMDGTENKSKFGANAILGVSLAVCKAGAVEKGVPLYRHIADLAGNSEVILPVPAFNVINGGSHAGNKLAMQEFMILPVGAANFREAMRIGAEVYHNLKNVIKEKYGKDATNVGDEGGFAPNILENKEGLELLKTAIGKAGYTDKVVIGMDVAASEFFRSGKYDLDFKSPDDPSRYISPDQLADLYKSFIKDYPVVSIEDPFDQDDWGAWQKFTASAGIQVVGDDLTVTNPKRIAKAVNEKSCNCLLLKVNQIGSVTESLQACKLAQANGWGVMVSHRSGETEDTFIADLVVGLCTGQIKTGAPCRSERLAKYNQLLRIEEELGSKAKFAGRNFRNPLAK
UniProt O96013: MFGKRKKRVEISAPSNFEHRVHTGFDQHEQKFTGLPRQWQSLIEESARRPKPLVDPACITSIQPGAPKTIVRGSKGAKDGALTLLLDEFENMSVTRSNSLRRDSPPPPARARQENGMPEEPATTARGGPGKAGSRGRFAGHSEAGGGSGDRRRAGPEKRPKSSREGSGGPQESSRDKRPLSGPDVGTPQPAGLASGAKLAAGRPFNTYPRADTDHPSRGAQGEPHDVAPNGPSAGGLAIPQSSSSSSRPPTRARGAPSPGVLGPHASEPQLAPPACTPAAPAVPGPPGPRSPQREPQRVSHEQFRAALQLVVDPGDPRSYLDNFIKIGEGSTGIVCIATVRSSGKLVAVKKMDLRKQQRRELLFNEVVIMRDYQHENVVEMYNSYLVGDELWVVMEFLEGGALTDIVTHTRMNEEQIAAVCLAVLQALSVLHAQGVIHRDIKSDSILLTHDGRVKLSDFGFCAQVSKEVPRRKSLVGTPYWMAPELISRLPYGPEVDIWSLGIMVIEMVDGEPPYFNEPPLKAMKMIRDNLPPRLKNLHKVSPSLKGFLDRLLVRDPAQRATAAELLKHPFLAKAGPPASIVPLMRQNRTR
UniProt Q8IVS2: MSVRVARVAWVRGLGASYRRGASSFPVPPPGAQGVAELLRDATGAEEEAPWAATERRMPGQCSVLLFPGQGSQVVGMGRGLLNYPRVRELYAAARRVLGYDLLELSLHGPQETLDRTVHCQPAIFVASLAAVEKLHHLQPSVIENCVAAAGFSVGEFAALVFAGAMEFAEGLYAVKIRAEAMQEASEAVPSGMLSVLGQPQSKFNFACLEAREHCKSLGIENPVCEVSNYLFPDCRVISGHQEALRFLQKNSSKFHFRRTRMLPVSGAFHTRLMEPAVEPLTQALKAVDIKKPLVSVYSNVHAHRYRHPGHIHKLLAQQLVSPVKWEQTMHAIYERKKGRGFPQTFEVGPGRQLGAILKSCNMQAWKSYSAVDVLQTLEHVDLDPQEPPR
UniProt P07919: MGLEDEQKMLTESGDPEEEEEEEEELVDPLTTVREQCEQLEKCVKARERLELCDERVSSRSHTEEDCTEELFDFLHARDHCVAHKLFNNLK
UniProt P08621, whole entry: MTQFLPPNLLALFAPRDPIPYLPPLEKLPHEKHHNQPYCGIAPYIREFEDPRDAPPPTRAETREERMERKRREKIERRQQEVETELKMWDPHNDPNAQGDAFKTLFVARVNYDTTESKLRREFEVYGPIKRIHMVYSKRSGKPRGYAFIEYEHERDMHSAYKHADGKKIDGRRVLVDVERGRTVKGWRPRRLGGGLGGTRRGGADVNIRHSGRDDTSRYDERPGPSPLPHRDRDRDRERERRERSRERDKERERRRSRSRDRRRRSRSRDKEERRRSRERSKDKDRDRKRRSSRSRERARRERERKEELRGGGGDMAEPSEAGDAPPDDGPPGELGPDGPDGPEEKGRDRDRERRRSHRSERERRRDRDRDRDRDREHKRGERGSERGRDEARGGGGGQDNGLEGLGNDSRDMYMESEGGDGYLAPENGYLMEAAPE
UniProt P16083: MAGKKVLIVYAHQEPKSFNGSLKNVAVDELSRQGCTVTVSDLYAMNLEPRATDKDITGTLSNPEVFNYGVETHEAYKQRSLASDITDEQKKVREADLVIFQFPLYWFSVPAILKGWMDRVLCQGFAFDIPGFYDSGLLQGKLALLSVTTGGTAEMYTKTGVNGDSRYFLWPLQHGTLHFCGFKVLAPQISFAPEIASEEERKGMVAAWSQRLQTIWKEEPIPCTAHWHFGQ

Compound: Nc1ncnc2c1ncn2[C@@H]1O[C@H](COP(=O)(O)OP(=O)(O)NP(=O)(O)O)[C@@H](O)[C@H]1O [adenylyl imidodiphosphate]
Test: NP40-soluble protein abundance relative to vehicle (solubility fold change) (ratio); higher = more soluble protein in presence of AMP-PNP
How it was run: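 Jurkat crude lysate (Dounce-homogenised) was treated with eight concentrations from 0.1 to 10 mM for 10 min at room temperature, then 3 min at 37 °C. It was solubilised with 0.8% NP40 and benzonase (60 min, 4 °C) and ultracentrifuged, and the supernatant was TMT-labelled for LC-MS/MS. Intensities were vsn-normalised, and the value is the fold change against the NP40-processed vehicle per replicate, from three independent experiments.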

Target	NP40-soluble protein abundance (concentration: 1mM)	NP40-soluble protein abundance (concentration: 2mM)	NP40-soluble protein abundance (concentration: 4mM)	NP40-soluble protein abundance (concentration: 6mM)	NP40-soluble protein abundance (concentration: 8mM)	NP40-soluble protein abundance (concentration: 10mM)
LGALS1 (UniProt P09382)	1.029 ± 0.0027	1.03 ± 0.011	0.984 ± 0.021	1 ± 0.037	0.998 ± 0.052	0.975 ± 0.045
UniProt P08651 and related entries	1.06 ± 0.022	1.04 ± 0.053	1.04 ± 0.046	1.033 ± 0.0072	1.04 ± 0.018	1.07 ± 0.02
SLC25A5 (UniProt P05141)	0.973 ± 0.01	0.959 ± 0.028	0.991 ± 0.015	1.06 ± 0.026	1.12 ± 0.046	1.17 ± 0.046
UniProt P01116-2	1.03 ± 0.04	1.05 ± 0.028	1.02 ± 0.022	0.9797 ± 0.0054	0.992 ± 0.015	0.974 ± 0.015
SKI (UniProt P12755)	0.9926 ± 0.0031	0.9899 ± 0.0034	0.972 ± 0.018	0.982 ± 0.024	0.9848 ± 0.007	0.9898 ± 0.0059
PGK1 (UniProt P00558)	0.94 ± 0.17	0.938 ± 0.15	0.981 ± 0.12	0.831 ± 0.071	0.989 ± 0.097	0.872 ± 0.11
P0CAP2 and related entries (UniProt Q6EEV4+P0CAP2)	0.993 ± 0.062	1.0822 ± 0.00086	0.993 ± 0.053	0.935 ± 0.011	0.935 ± 0.017	0.963 ± 0.015
SLC25A6 (UniProt P12236)	0.929 ± 0.069	0.9307 ± 0.0093	0.932 ± 0.029	1.01 ± 0.049	0.993 ± 0.051	1.03 ± 0.072
RPLP2 (UniProt P05387)	1 ± 0.054	0.979 ± 0.034	0.925 ± 0.064	0.914 ± 0.056	0.853 ± 0.028	0.925 ± 0.076
UniProt P10586 and related entries	0.989 ± 0.021	0.9746 ± 0.0047	0.998 ± 0.015	0.99 ± 0.018	0.9966 ± 0.0094	0.98 ± 0.03
RALA (UniProt P11233)	1.04 ± 0.019	0.987 ± 0.062	1 ± 0.057	1 ± 0.013	0.979 ± 0.012	0.968 ± 0.053
UniProt O95793 and related entries	1.04 ± 0.0038	1.05 ± 0.043	1.09 ± 0.029	1.143 ± 0.0097	1.19 ± 0.021	1.28 ± 0.038
UniProt O95777 and related entries	0.96 ± 0.022	0.962 ± 0.036	0.993 ± 0.013	0.966 ± 0.015	1.01 ± 0.042	0.97 ± 0.049
UniProt P04234	1.01 ± 0.052	0.997 ± 0.04	1.02 ± 0.067	0.989 ± 0.053	1.03 ± 0.056	0.992 ± 0.064
RNH1 (UniProt P13489)	0.944 ± 0.038	0.899 ± 0.041	0.919 ± 0.047	0.957 ± 0.053	0.961 ± 0.043	0.916 ± 0.052
SYF2 (UniProt O95926)	1.01 ± 0.013	1.06 ± 0.085	1.07 ± 0.028	1.03 ± 0.058	1.08 ± 0.058	1.12 ± 0.063
UniProt P10747 and related entries	0.99 ± 0.011	0.9921 ± 0.0083	0.9829 ± 0.008	1.027 ± 0.0094	1.03 ± 0.021	1.01 ± 0.037
SSB (UniProt P05455)	1.035 ± 0.0037	1.07 ± 0.088	1.01 ± 0.014	1.04 ± 0.013	1.02 ± 0.031	1.02 ± 0.047
EIF2S1 (UniProt P05198)	1.01 ± 0.031	0.947 ± 0.078	1.02 ± 0.019	1.04 ± 0.034	1.07 ± 0.029	1.05 ± 0.026
UniProt P08240	1.01 ± 0.012	0.996 ± 0.032	1.04 ± 0.016	1.03 ± 0.022	1.06 ± 0.017	1.057 ± 0.0089
UniProt P05026 and related entries	1.05 ± 0.042	1.09 ± 0.091	1.04 ± 0.021	1.07 ± 0.028	1.04 ± 0.029	1.09 ± 0.043
CTSD (UniProt P07339)	0.995 ± 0.051	0.973 ± 0.059	0.993 ± 0.072	1.08 ± 0.099	1.09 ± 0.093	1.09 ± 0.091
UniProt P00390 and related entries	0.968 ± 0.038	0.89 ± 0.065	0.925 ± 0.04	0.994 ± 0.057	1 ± 0.025	0.97 ± 0.031
TPR (UniProt P12270)	1.01 ± 0.035	1.03 ± 0.041	0.979 ± 0.019	0.974 ± 0.057	0.942 ± 0.036	0.976 ± 0.04
UniProt P15529-2|P15529-3|P15529-4|P15529-5|P15529-6|P15529-7	1.004 ± 0.0032	1.09 ± 0.14	1 ± 0.037	1.05 ± 0.029	0.991 ± 0.033	1.06 ± 0.058
DLAT (UniProt P10515)	0.959 ± 0.23	0.904 ± 0.2	0.904 ± 0.31	0.877 ± 0.31	0.899 ± 0.27	0.923 ± 0.31

Full records, quoted from the list. Values in the order: NP40-soluble protein abundance (concentration: 1mM)	NP40-soluble protein abundance (concentration: 2mM)	NP40-soluble protein abundance (concentration: 4mM)	NP40-soluble protein abundance (concentration: 6mM)	NP40-soluble protein abundance (concentration: 8mM)	NP40-soluble protein abundance (concentration: 10mM)
PGK1 (UniProt P00558) is listed with 0.94 ± 0.17	0.938 ± 0.15	0.981 ± 0.12	0.831 ± 0.071	0.989 ± 0.097	0.872 ± 0.11
UniProt P00390 and related entries is listed with 0.968 ± 0.038	0.89 ± 0.065	0.925 ± 0.04	0.994 ± 0.057	1 ± 0.025	0.97 ± 0.031
SYF2 (UniProt O95926) is listed with 1.01 ± 0.013	1.06 ± 0.085	1.07 ± 0.028	1.03 ± 0.058	1.08 ± 0.058	1.12 ± 0.063

Further records:

Target	NP40-soluble protein abundance (concentration: 1mM)	NP40-soluble protein abundance (concentration: 2mM)	NP40-soluble protein abundance (concentration: 4mM)	NP40-soluble protein abundance (concentration: 6mM)	NP40-soluble protein abundance (concentration: 8mM)	NP40-soluble protein abundance (concentration: 10mM)
EEF2 (UniProt P13639)	0.96 ± 0.025	0.92 ± 0.036	0.939 ± 0.02	0.966 ± 0.022	0.975 ± 0.019	0.9553 ± 0.0019
DBI (UniProt P07108)	1.04 ± 0.064	1.06 ± 0.055	0.987 ± 0.015	0.96 ± 0.041	0.928 ± 0.025	0.997 ± 0.1
UniProt P10398 and related entries	1.1 ± 0.036	1.07 ± 0.068	1.12 ± 0.061	1.08 ± 0.14	1.07 ± 0.076	1.08 ± 0.082
UniProt P14543	0.862 ± 0.086	0.769 ± 0.13	0.815 ± 0.1	0.867 ± 0.073	0.855 ± 0.05	0.849 ± 0.12
UniProt P00338-2|P00338-3	0.917 ± 0.095	0.806 ± 0.0098	0.795 ± 0.11	0.96 ± 0.16	1.03 ± 0.087	0.877 ± 0.12
UniProt P04075 and related entries	1.01 ± 0.033	1.02 ± 0.03	1 ± 0.032	1.07 ± 0.035	1.04 ± 0.019	1.086 ± 0.0049
DBT (UniProt P11182)	0.977 ± 0.14	1.01 ± 0.12	1.01 ± 0.15	0.999 ± 0.2	0.971 ± 0.14	1.03 ± 0.19
MGMT (UniProt P16455)	1 ± 0.046	1.06 ± 0.038	0.982 ± 0.044	0.97 ± 0.023	0.9589 ± 0.0089	0.961 ± 0.048
ATXN1L (UniProt P0C7T5)	1.02 ± 0.016	1.02 ± 0.022	1.03 ± 0.013	1.02 ± 0.03	1 ± 0.016	1.02 ± 0.021
HCLS1 (UniProt P14317)	1.03 ± 0.019	1.09 ± 0.073	1 ± 0.025	1.01 ± 0.028	0.967 ± 0.012	0.994 ± 0.052
UniProt P06733 and related entries	1.01 ± 0.049	1.02 ± 0.013	0.986 ± 0.017	0.989 ± 0.024	0.978 ± 0.03	0.986 ± 0.036
SPN (UniProt P16150)	0.954 ± 0.063	1.02 ± 0.066	0.985 ± 0.073	0.988 ± 0.068	0.959 ± 0.062	0.944 ± 0.088
PAK4 (UniProt O96013)	1 ± 0.027	1.04 ± 0.027	1.02 ± 0.041	1.02 ± 0.05	0.995 ± 0.031	1.02 ± 0.048
UniProt P13674-2|P13674	1.01 ± 0.033	1.03 ± 0.014	1 ± 0.0065	0.985 ± 0.03	0.963 ± 0.011	0.988 ± 0.024
P00403 and related entries (UniProt Q8IVS2)	0.922 ± 0.029	0.782 ± 0.16	0.88 ± 0.03	0.893 ± 0.029	0.929 ± 0.021	0.873 ± 0.041
UQCRH (UniProt P07919)	0.962 ± 0.017	0.96 ± 0.03	0.937 ± 0.0064	0.9362 ± 0.005	0.909 ± 0.046	0.945 ± 0.023
UniProt P08621 and related entries	0.973 ± 0.022	0.976 ± 0.035	1.01 ± 0.023	1.12 ± 0.05	1.18 ± 0.059	1.28 ± 0.09
RPN1 (UniProt P04843)	1 ± 0.015	0.959 ± 0.032	0.942 ± 0.021	0.951 ± 0.042	0.937 ± 0.028	0.927 ± 0.039
UniProt P09471-2	0.956 ± 0.045	0.928 ± 0.075	0.965 ± 0.063	0.939 ± 0.057	0.92 ± 0.045	0.947 ± 0.055
PARP1 (UniProt P09874)	1.06 ± 0.018	1.09 ± 0.05	1.21 ± 0.016	1.39 ± 0.027	1.51 ± 0.071	1.59 ± 0.11
PCNA (UniProt P12004)	1.008 ± 0.0098	0.998 ± 0.012	0.957 ± 0.012	0.973 ± 0.015	0.951 ± 0.018	0.935 ± 0.024
QDPR (UniProt P09417)	0.985 ± 0.017	0.975 ± 0.015	0.9678 ± 0.0091	1.02 ± 0.036	0.991 ± 0.024	1.02 ± 0.044
UniProt P09543 and related entries	1.01 ± 0.022	0.965 ± 0.053	0.9767 ± 0.0046	0.973 ± 0.025	0.966 ± 0.013	0.959 ± 0.015
UniProt P16083 and related entries	1.02 ± 0.02	0.982 ± 0.074	0.988 ± 0.034	0.991 ± 0.02	0.993 ± 0.04	0.982 ± 0.052
UniProt P10244 and related entries	1.04 ± 0.071	1.06 ± 0.031	1.04 ± 0.054	1.02 ± 0.067	0.998 ± 0.04	1.01 ± 0.029
